PubChem BioAssay AID652243, Drosophila RNAi Screening Center | 2013

Test: 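Fly regulators of androgen-dependent reporter output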 (primary screen)
Cells: Drosophila S2R+ cells
Knock-down reagent: long dsRNA against Drosophila genes
Timing: 72 h (48 h, then 24 h hormone)
Treatment: synthetic androgen R1881 at 10 nM for 24 h
Read-out: 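Firefly light from an androgen-responsive reporter and Renilla control light per well, raw and unnormalised, for each of two replicates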
Scale: firefly reporter light: higher = more light from androgen-responsive reporter; Renilla control light: higher = more constitutive control signal (cell number, transfection)
Call rule: 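Hit when the log firefly-to-Renilla ratio dropped or increased by a fixed fold versus the mean of GFP or LacZ controls across duplicate plates; lowering cut given as 1.5 and as 3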
Calls: active = hit: reporter lowered or raised; inactive = no hit
The deposit covers about 24,000 reagents; this is a random part of those that have a named target and a result. Of all reagents, 246 (1%) are marked active. 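Plates not normalised; calls are printed but the firefly/Renilla ratio behind them is not deposited; fold cut for lowering reported inconsistently.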 The raw values are shown without normalisation. No sequences are given here. Not given: the amount of reagent.

Depletion of cpo [DRSC13265] resulted in: firefly reporter light, replicate 1 = 1.85e5; firefly reporter light, replicate 2 = 2.50e5; Renilla control light, replicate 1 = 6.23e5; Renilla control light, replicate 2 = 9.85e5; inactive. Against cpo [DRSC13273], the values are firefly reporter light, replicate 1 = 1.51e5; firefly reporter light, replicate 2 = 1.54e5; Renilla control light, replicate 1 = 2.65e5; Renilla control light, replicate 2 = 2.50e5; inactive. cpo [DRSC23006] gave firefly reporter light, replicate 1 = 3.38e5; firefly reporter light, replicate 2 = 4.09e5; Renilla control light, replicate 1 = 1.19e6; Renilla control light, replicate 2 = 1.59e6; inactive. Knock-down of cpo [DRSC25799] resulted in: firefly reporter light, replicate 1 = 3.45e5; firefly reporter light, replicate 2 = 2.66e5; Renilla control light, replicate 1 = 6.62e5; Renilla control light, replicate 2 = 5.32e5; inactive. cpo [DRSC38943] showed firefly reporter light, replicate 1 = 7.05e5; firefly reporter light, replicate 2 = 5.81e5; Renilla control light, replicate 1 = 1.44e6; Renilla control light, replicate 2 = 1.16e6; inactive. Knock-down of Prip [DRSC07044] resulted in: firefly reporter light, replicate 1 = 1.61e6; firefly reporter light, replicate 2 = 1.02e6; Renilla control light, replicate 1 = 2.21e6; Renilla control light, replicate 2 = 1.21e6; inactive.

Prip [DRSC26459] showed firefly reporter light, replicate 1 = 3.38e5; firefly reporter light, replicate 2 = 2.37e5; Renilla control light, replicate 1 = 7.63e5; Renilla control light, replicate 2 = 3.98e5; inactive. Knock-down of Phb1 [DRSC03563] gave: firefly reporter light, replicate 1 = 1.10e6; firefly reporter light, replicate 2 = 7.96e5; Renilla control light, replicate 1 = 1.91e6; Renilla control light, replicate 2 = 1.26e6; inactive. Depletion of Phb1 [DRSC27403] gave: firefly reporter light, replicate 1 = 2.81e5; firefly reporter light, replicate 2 = 2.87e5; Renilla control light, replicate 1 = 7.07e5; Renilla control light, replicate 2 = 8.03e5; inactive. Silencing of ABCB7 [DRSC08603] came out at: firefly reporter light, replicate 1 = 43746; firefly reporter light, replicate 2 = 62056; Renilla control light, replicate 1 = 8.93e5; Renilla control light, replicate 2 = 9.11e5; inactive. With knock-down of CG13018 [DRSC06274] the results were firefly reporter light, replicate 1 = 1.13e5; firefly reporter light, replicate 2 = 1.57e5; Renilla control light, replicate 1 = 1.46e6; Renilla control light, replicate 2 = 1.46e6; inactive. After knock-down of Dop2R [DRSC20683], the screen gave firefly reporter light, replicate 1 = 2.10e5; firefly reporter light, replicate 2 = 1.77e5; Renilla control light, replicate 1 = 4.82e5; Renilla control light, replicate 2 = 4.49e5; inactive.

After knock-down of Dop2R [DRSC29286], the screen gave firefly reporter light, replicate 1 = 6.91e5; firefly reporter light, replicate 2 = 6.50e5; Renilla control light, replicate 1 = 1.01e6; Renilla control light, replicate 2 = 1.71e6; inactive.

3 entries from above in another layout.
{"Gene": "cpo", "DRSC id": "DRSC25799", "firefly reporter light, replicate 1": 3.45e5, "firefly reporter light, replicate 2": 2.66e5, "Renilla control light, replicate 1": 6.62e5, "Renilla control light, replicate 2": 5.32e5, "Outcome": "inactive"}
{"Gene": "cpo", "DRSC id": "DRSC38943", "firefly reporter light, replicate 1": 7.05e5, "firefly reporter light, replicate 2": 5.81e5, "Renilla control light, replicate 1": 1.44e6, "Renilla control light, replicate 2": 1.16e6, "Outcome": "inactive"}
{"Gene": "Prip", "DRSC id": "DRSC07044", "firefly reporter light, replicate 1": 1.61e6, "firefly reporter light, replicate 2": 1.02e6, "Renilla control light, replicate 1": 2.21e6, "Renilla control light, replicate 2": 1.21e6, "Outcome": "inactive"}

Continued.
Knock-down of CG31710 [DRSC01089] came out at: firefly reporter light, replicate 1 = 2.48e5; firefly reporter light, replicate 2 = 2.70e5; Renilla control light, replicate 1 = 8.45e5; Renilla control light, replicate 2 = 4.21e5; inactive. For CG31710 [DRSC22863], the values are firefly reporter light, replicate 1 = 5.49e5; firefly reporter light, replicate 2 = 9.95e5; Renilla control light, replicate 1 = 1.07e6; Renilla control light, replicate 2 = 1.53e6; inactive. CG31710 [DRSC25873] showed firefly reporter light, replicate 1 = 3.66e5; firefly reporter light, replicate 2 = 3.53e5; Renilla control light, replicate 1 = 1.26e6; Renilla control light, replicate 2 = 1.04e6; inactive. Knock-down of CG4480 [DRSC02750] resulted in: firefly reporter light, replicate 1 = 1.63e5; firefly reporter light, replicate 2 = 1.24e5; Renilla control light, replicate 1 = 1.77e6; Renilla control light, replicate 2 = 1.57e6; inactive. CG33453 [DRSC05782] scored firefly reporter light, replicate 1 = 1.20e5; firefly reporter light, replicate 2 = 1.51e5; Renilla control light, replicate 1 = 3.45e5; Renilla control light, replicate 2 = 4.44e5; inactive. Vps39 [DRSC16205] gave firefly reporter light, replicate 1 = 1.01e5; firefly reporter light, replicate 2 = 69028; Renilla control light, replicate 1 = 5.22e5; Renilla control light, replicate 2 = 5.66e5; inactive.

Knock-down of Ude [DRSC15324] resulted in: firefly reporter light, replicate 1 = 81963; firefly reporter light, replicate 2 = 37346; Renilla control light, replicate 1 = 5.04e5; Renilla control light, replicate 2 = 3.44e5; inactive. For CG8349 [DRSC03083], the entry reads firefly reporter light, replicate 1 = 1.54e5; firefly reporter light, replicate 2 = 1.43e5; Renilla control light, replicate 1 = 1.26e6; Renilla control light, replicate 2 = 1.32e6; inactive.
